Measured values taken from US20130323776A1, “CARRIER PEPTIDE FRAGMENT AND USE THEREOF” (Toagosei Co. Ltd., priority 2009, published 2013).
Some results were stated once for a whole list of compounds, not compound by compound.

These substances were tested on Human neonate foreskin fibroblasts (ATCC Catalogue No. CRL-2097) (assay: Evaluation of cell membrane permeability function, confocal laser scanning microscopy of fluorescently labeled peptide). Details: 1 μM peptide, 1 or 4 hours culture, methanol fixed.
Format: cell-based
Description: Human neonate foreskin fibroblasts (ATCC Catalogue No. CRL-2097) were used as the eukaryotic cells, and the cell membrane permeability capability of the samples (constructs for transferring a foreign substance) obtained in Example 1 above was investigated.
More specifically, the abovementioned fibroblasts were cultured in a liquid mixture of 90% Eagle MEM culture medium (containing 0.1% nonessential amino acids, 2 mM L-glutamine, 1 mM sodium pyruvate, and 1.5 g/L sodium hydrogen carbonate) and 10% serum (FBS) as the culture medium.
The cultured cells were trypsinized for 1 min at 37° C. with a 0.25% trypsin solution. After the abovementioned treatment, the trypsin was deactivated with FBS-containing medium, and a cell suspension (test sample for foreign substance transfer) was prepared by adjusting the cell concentration to approximately 5×10^4 cells/mL with the culture medium.
Next, 0.5 mL of the abovementioned cell suspension was placed in a designated cell culturing container (culture slide with a surface coating of 0.1% gelatin), and the cells were incubated overnight at 37° C. in a 5% CO2 atmosphere. After incubation the medium was replaced with fresh culture medium, and the 1 mM sample solutions of each of the samples prepared in abovementioned Example 1 were added to a cell culture container so that the final sample concentration (peptide concentration) would be 1 μM. In this case 0.5 μL of sample solution was added to the container. Then the samples were incubated at 37° C. for either 1 or 4 hours in a 5% CO2 atmosphere.
The cells after 1 hour of culture and the cells after 4 hours of culture were each rinsed in PBS and fixed with methanol (on ice for 10 min).
Next the methanol-fixed samples (cells) were mounted using Prolong® Gold Antifade Reagent (Invitrogen) that contains the nuclear stain DAPI (4′,6-diamidino-2-phenylindole). Then the localization within the cells of the peptide bonded to the fluorescent dye (i.e., fluorescently labeled peptide) in each test sample (i.e., the abovementioned mounted test samples after methanol fixation) was investigated using a confocal scanning laser microscope. Part of the results are presented herein as micrographs.

Question: For “(FAM)-KRKGKLKNKGSKRKK (N-terminal FAM) [compound 11]”, which “penetration of the cell membrane from outside the cell and transfer into the cytoplasm” value (“penetration of the cell membrane” below) is on record?
Answer: nearly the same results as in Sample No. 14

Question: Which “penetration of the cell membrane” value does the source give for “(FAM)-RKKRKKK (N-terminal FAM) [compound 10]” here?
Answer: nearly the same results as in Sample No. 14

Question: With “(FAM)-RRRANNRRR (N-terminal FAM) [compound 9]” as the substance, how does the “penetration of the cell membrane” value read?
Answer: nearly the same results as in Sample No. 14

Question: Which “penetration of the cell membrane” value does the source give for “(FAM)-SKRLSSRARKRAAKRRLG (N-terminal FAM) [compound 12]” here?
Answer: nearly the same results as in Sample No. 14

Question: How did the “penetration of the cell membrane” value turn out when “(FITC-Acp)-RSRKYTSWYVALKR (N-terminal FITC-Acp) [Sample No. 1]” was run?
Answer: nearly the same results as in Sample No. 14
